Values from PubChem BioAssay AID686943 (Drosophila RNAi Screening Center, 2013).

- Aim: 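Fly genes whose loss alters ERK activation after insulin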 (primary screen)
- System: Drosophila S2R+ haemocyte-like cells expressing YFP-tagged ERK (Rolled)
- Reagents: long dsRNA against Drosophila genes
- Treatment: insulin stimulation versus unstimulated cells; dose and duration not given
- Measurement: 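Per-plate z-scores of phospho-ERK immunostaining normalised to YFP-tagged ERK, measured with and without insulin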
- Direction: replicate 1, z-score of dpERK with insulin and replicate 2, z-score of dpERK with insulin: higher = more active ERK per ERK-YFP after insulin; replicate 1, z-score of dpERK under basal conditions: higher = more basal active ERK per ERK-YFP; replicate 1, z-score of ERK-YFP with insulin: higher = more YFP-tagged ERK signal
In all, the deposit lists about 23,000 reagents; this is an unselected part of those that have a named target and a result. 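Extra replicates exist only for a retested subset of genes; insulin dose and duration not given; both raised and lowered dpERK matter.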 The numbers tell different reagents against one gene apart. A plus sign joins genes that one reagent is predicted to hit. The record does not give: the amount of reagent, the time to read-out.

Gene | reagent no. | replicate 1, z-score of dpERK with insulin | replicate 2, z-score of dpERK with insulin | replicate 1, z-score of dpERK under basal conditions | replicate 1, z-score of ERK-YFP with insulin
Nepl20 | 1 | 0.15 | -0.14 | -0.43 | -0.07
GluRIIB | 1 | -0.49 | -1.29 | -0.13 | 0.98
CG32751 | 1 | 0.39 | 0.53 | -0.64 | -1.68
GstD7 | 1 | 1.44 | 0.77 | 2.14 | -0.17
CG18605 | 1 | 1.49 | 1.21 | 0.62 | -0.28
CG30087 | 1 | 0.19 | -0.82 | -0.86 | 0.98
otk2 | 1 | -0.65 | 0 | 0.28 | 0.29
CG8517 | 1 | 0.95 | 0.58 | -0.15 | 0.2
CG3349 | 1 | -0.84 | -0.01 | -0.16 | 0.51
CG30357 | 1 | 0.02 | 0.84 | -0.16 | -1.17
SmydA-5 | 1 | 0 | 0.48 | -0.07 | 0.16
CG11141 | 1 | -0.41 | -0.2 | 0.56 | 0.32
Map205 | 1 | -0.79 | -0.8 | 0.19 | 0.51
FRG1 | 1 | 0.1 | 0.33 | 0.18 | -0.21
Oga | 1 | -0.15 | 0.44 | 0.61 | 0.23
Hex-t1 | 1 | -0.13 | 0 | -1.02 | 0.04
CG31016 | 1 | 1.07 | 0.53 | -0.36 | -0.03
Ide | 1 | -0.01 | -0.39 | 0.57 | 0.25
CG7536 | 1 | -0.61 | -0.36 | 0.68 | 1.02
CG11127 | 1 | -1 | -0.4 | -1.29 | 0.86
CG6290 | 1 | 0.15 | 0.23 | 0.72 | 0.05
CG12985 | 1 | 1.2 | 0.11 | -0.27 | 0.92

The list goes on; the last 2 above are carried over.
Gene | reagent no. | replicate 1, z-score of dpERK with insulin | replicate 2, z-score of dpERK with insulin | replicate 1, z-score of dpERK under basal conditions | replicate 1, z-score of ERK-YFP with insulin
CG6290 | 1 | 0.15 | 0.23 | 0.72 | 0.05
CG12985 | 1 | 1.2 | 0.11 | -0.27 | 0.92
CG10341 | 1 | -0.51 | -0.18 | -0.5 | 0.47
CG4617 | 1 | -0.06 | -0.25 | -0.34 | -0.01
CG9903 | 1 | 0.31 | 0.2 | -0.79 | -0.79
CG8854 | 1 | 0.26 | 0.66 | 0.7 | 0.86
CG3156 | 1 | 0 | -0.49 | -0.33 | 0.44
FASN2 | 1 | 0.39 | 0.87 | -0.11 | 0.47
FASN2 | 2 | 0.57 | 0.39 | -0.27 | 0.18
Max | 1 | -0.38 | -0.85 | -2.01 | -0.41
Inx6 | 1 | -0.43 | -0.18 | 0.9 | 0.66
mst | 1 | 0.06 | -0.14 | -0.41 | 0.45
CG16779 | 1 | -1.07 | -1.22 | 0.03 | -0.19
Spn43Ad | 1 | 0.39 | -0.38 | -0.16 | 0.39
bab1 | 1 | -3.49 | 1.41 | -0.95 | -1.59
bab1 | 2 | -0.89 | 1.06 | -0.57 | 1.4
bab1 | 3 | 0.25 | 0.02 | -0.87 | 0.5
CG42490 (retired record) | 1 | 0.59 | 0.27 | -1.02 | 0.24
snoRNA:U31:54Ec + snoRNA:snR38:54Eb + snoRNA:U27:54Eb + 8 more | 1 | 0.07 | -0.06 | -0.22 | 0.14
